The values below come from the supplement of paper PMC11237882.

T1: Homer1 EVH1 domain
T1 chain: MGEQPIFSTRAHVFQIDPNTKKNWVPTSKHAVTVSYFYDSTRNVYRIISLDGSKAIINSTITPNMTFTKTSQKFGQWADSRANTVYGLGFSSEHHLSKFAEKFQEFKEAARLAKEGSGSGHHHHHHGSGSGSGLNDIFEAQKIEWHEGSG

The other results are listed elsewhere or left out. Values are worked out from sequencing counts and are noisy.

This test addresses T1, Homer1 EVH1 domain. The experiment in a line: enrichment score (AUC of log2 frequency ratio across FACS sorting rounds) (log2 AUC); higher = stronger enrichment for Homer1 EVH1 binding.
For the molecule MLLVPFSLILSSYGLILAAVLHMRSTEARKKAFATC, the enrichment score turned out to be 3.6.
For DKNIISYYFCATQLAFFLVFIGSELFILSAMSYDLY, the enrichment score was found to be 1.28.
In the case of LSWIFAWSLIIPFSCFPKHLPGTAEIQAGKTSQAHQ, the enrichment score is -2.16.
Next, ISNFLLFISVVSFLTYSIWASSCKNKAECNELHPSV: 3.08.
In the case of AIFWTTISYLAISATIGSCVVRDASGVPNDTVTPGW, the enrichment score is 2.13.
As to LCVVMVCILLYTTYPLLKESALILLQTVPKQIDIRN, the enrichment score was -0.0254.
Next, CIGANLGHCAPASSAGSLAAGPLLLALALYPLSVLF: 1.41.
In the case of KTCSRPIRIGLSRKARIKQLHPYLKQMCYGNLKENF, the enrichment score was found to be 0.368.
Regarding CSIVMLLFLCSFSWLIFIFLQLETAKEPCMAKFGPL, the enrichment score amounted to 0.609.
As to NFNEAKFIGFTMYTTCIIWLALLPIFYVTSSDYRVH, the enrichment score is 4.43.
On to MTQPVPRLSVPAALALGSAALGAAFATGLFLGRRCP, for which the enrichment score was 0.469.
Next, PSTSFLEKFKHISANHTLGFILFSWVLNMFITNNLL: 2.37.
With TLYGPGAVIDGVNSASRALACLWLSGTLLAHFFIKF, the enrichment score turned out to be 0.415.
For the molecule MFLSTYLVTIIGNALIILAIITDSHLHTPMYFFLFN, the enrichment score is -0.635.
As for GLDSIMGNKDLWPLLLSIIFIPALLQCICCRSARTR, the enrichment score worked out at 3.78.
Next, PQTGAGEAPPAAEVSSSFVILCVCSLIILIVLIANC: -0.404; SKYLSHDVVVMTVKLCILFAVLLTVPLIHFPARKAV: 2.18; FLCNFSAADGGLRASVTLLGAGLLLSLLPALLRFGP: -0.981.
For the molecule AMAYDRYVAICNPLLYMVTMSPQVCFLLLLGVYGMG, the enrichment score was -2.58.
The same measure for KNPNLPLAAIIGGAVALVTIALLALVCWYVHRNGSL: 0.628; for RKVDREDKLDIPMFFGFVGLFNLLLLWPGFFLLHYT: 0.325; for MLPQQVGFVCAVLALVCCASGLFGSLGHKTASASKR: 0.788.
Turning to AGGRIWERLFHGPTSSLIPRRSVKLKMPTAFVSGPR, the enrichment score amounted to 0.201.
Next, TANWRMLLRILPQSFGFIVPLLIMLFCYGFTLRTLF: -1.23; MLARALLLCAVLALSHTANPCCSHPCQNRGVCMSVG: 0.818.
Next, HLPSVLAMIHVKRCTPIPALLFTCISTLLMLVTSDI: 3.97; NMFSICSAVMVMALLAVVGLFTVVRHDAELRVPSPI: 4.68; FSTIPEHTKLASSCLLILEFVMIVVFGLEFIIRIWS: -0.871.
In the case of MLLLARCLLLVLVSSLLVCSGLACGPGRGFGKRRHP, the enrichment score turned out to be 0.271.
Consider LRSSQRLQKRHQHLESESRTLAAKMAALASMAHGMA, for which the enrichment score is 1.49.
The same measure for LLGILALVLLPVILLPFYYTGVGVLITEVAEDSPAI: 1.27.
Next, LLSHGAKEDFHPPAEDWKPQSSHWGAALKDLHRIYR: 1.44; YTLVSKLNLTNDGNLSNDWDFPRNGLLMPLLGVIFL: -2.28; TVTFGVITSIVTWGLAVLAALPEFIFYETEELFEET: -0.0353.
As for MTIHQFLLLFLFWVCLPHFCSPEIMFRRTPVPQQRI, the enrichment score was 2.83.
Next, LKSHQFFQSTWDTVAFIVFLTFMGTVLLLLLLVVAH: 0.391.
QFATAYQGTRARSDNTHYWLIISCSIAYVALVTLRI: the enrichment score is 2.22.
For the molecule IIFLLIFIIINWAAVKAFWGAKASTPEVQSDQSSVR, the enrichment score worked out at 1.81.
On to SGLLSLSCFLLLLISYTVILLAIRQRAAGSTSKALS, for which the enrichment score amounted to 2.7.
On to ILVPSAILAAFLLIWSVKCCRAQLEARRSRHPADGA, for which the enrichment score was 2.12.
Next, RYAMVLFRITSVFYMLWLPYIIYLLLESSRVLDNPT: 2.28; LPCTEKAFFSRVLTYFIALSIGTLLSNALFQLIPVA: 2.82; PLMKISPWWYFAVISVSGVFAVTFSVVFAYVADITQ: -0.44.
With GKLFIAPLIMVLGLALGAIAVVIVEEIKTYWNLISG, the enrichment score amounted to 1.02.
